{"source": "patent US8273726B2", "about": "“Compositions for treating and/or preventing diseases characterized by the presence of metal ions” (Brandeis University, priority 2002, dated 2012)", "test_system": "A-beta antigen", "assay": "Slot blot of A-beta antigen extracted from Alzheimer's brain tissue sections (Example 8)", "parameters": "species or system human", "details": "Braak V tissue", "note": "Some of these results come from one statement about several compounds together. At least one structure is not confirmed: it was looked up by name or label, or the drawing left a doubt.", "data": [{"smiles": "C[Si](Cl)(Cl)CC[Si](C)(Cl)Cl", "note": "[compound 1042, 1,2-(methyldichlorosilyl)ethane]", "values": [{"measurement": "antigen extracted (text, range over several treatments)", "value": "11.2 to 14.0", "unit": "fmol"}]}]}
